PubChem BioAssay AID1508588 | Peter MacCallum Cancer Centre – 2020

Assay: 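Genome-wide search for knock-downs that heighten vemurafenib action in melanoma cells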 (primary screen)
Cells: human WM266.4 melanoma cells (BRAF V600 mutant)
Reagents: siRNA pool against human genes, 40 nM
Duration: 96 h from transfection to read-out
Treatment: vemurafenib 300 nM (about IC25), added 48 h after transfection, for 48 h; comparison arm got DMSO vehicle only
Detection: 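Cell gain (DAPI nuclei at end minus before drug, mean of two replicates) and medium lactate by absorbance per cell, both as ratio to non-targeting siRNA, also grouped into fold-change classes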
Direction: cell gain with vemurafenib: higher = more cell gain than with non-targeting siRNA; lactate per cell with vemurafenib: higher = more lactate made per cell
Hit rule: 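a knock-down counts as enhancing when its fold-change classes with vehicle and with vemurafenib, taken together, show a stronger drug effect on cell gain or lactate per cell; exact class pairs not stated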
Meaning of the calls: active = enhances vemurafenib effect; inactive = no enhancement seen
Shown is a random part of about 18,000 deposited reagents. Over the whole deposit, 790 (4.4%) were called active. 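Calls rest on a combination of fold-change classes in drug and vehicle arms, not all shown here.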

STRAP (GeneID 11171) scored cell gain with vemurafenib 0.76; lactate per cell with vemurafenib 0.37; inactive.
For ATOSA (GeneID 56204), the entry reads cell gain with vemurafenib 0.58; lactate per cell with vemurafenib 1.17; inactive.
After knock-down of SLC13A4 (GeneID 26266) the results were cell gain with vemurafenib 0.06; lactate per cell with vemurafenib 2.61; inactive.
With knock-down of KRT28 (GeneID 162605), the screen gave cell gain with vemurafenib 1.07; lactate per cell with vemurafenib 0.6; inactive.
Silencing of ZMYND11 (GeneID 10771) resulted in: cell gain with vemurafenib 1.06; lactate per cell with vemurafenib 0.97; inactive.
Silencing of SLC9A2 (GeneID 6549) gave: cell gain with vemurafenib 0.59; lactate per cell with vemurafenib 0.89; inactive.
RAD51D (GeneID 5892) scored cell gain with vemurafenib 0.65; lactate per cell with vemurafenib 1.28; inactive.
With knock-down of LTBP3 (GeneID 4054) the results were cell gain with vemurafenib 0.04; lactate per cell with vemurafenib 2.27; inactive.
With knock-down of TUBB4B (GeneID 10383), the record shows cell gain with vemurafenib 0.33; lactate per cell with vemurafenib 1.31; inactive.
After knock-down of INPP4A (GeneID 3631), the screen gave cell gain with vemurafenib 0.84; lactate per cell with vemurafenib 0.46; inactive.
HRNR (GeneID 388697) showed cell gain with vemurafenib 0.9; lactate per cell with vemurafenib 0.5; inactive.
After knock-down of FXYD2 (GeneID 486), the record shows cell gain with vemurafenib 0.21; lactate per cell with vemurafenib 1.12; inactive.
After knock-down of BACC1 (GeneID 124944), the screen gave cell gain with vemurafenib 0.54; lactate per cell with vemurafenib 1.48; inactive.
ZNF579 (GeneID 163033) scored cell gain with vemurafenib 0.89; lactate per cell with vemurafenib 1.33; inactive.
Against SCIN (GeneID 85477), the entry reads cell gain with vemurafenib 0.65; lactate per cell with vemurafenib 1.14; inactive.
Against ZNF253 (GeneID 56242), the values are cell gain with vemurafenib 0.88; lactate per cell with vemurafenib 0.24; inactive.
For ACP1 (GeneID 52), the values are cell gain with vemurafenib 0.24; lactate per cell with vemurafenib 1.02; inactive.
Knock-down of TAP2 (GeneID 6891) came out at: cell gain with vemurafenib 0.35; lactate per cell with vemurafenib 1.18; inactive.
Silencing of DNAJC25-GNG10 (GeneID 552891) resulted in: cell gain with vemurafenib 0.87; lactate per cell with vemurafenib 1.03; inactive.
SLC29A1 (GeneID 2030) gave cell gain with vemurafenib 0.22; lactate per cell with vemurafenib 1.03; inactive.
With knock-down of MPEG1 (GeneID 219972), the record shows cell gain with vemurafenib 0.72; lactate per cell with vemurafenib 0.94; inactive.
With knock-down of GPX1 (GeneID 2876), the record shows cell gain with vemurafenib 0.6; lactate per cell with vemurafenib 1.08; inactive.
Depletion of GSG1L (GeneID 146395) came out at: cell gain with vemurafenib 0.38; lactate per cell with vemurafenib 1.02; inactive.
Knock-down of RDH10 (GeneID 157506) came out at: cell gain with vemurafenib 0.73; lactate per cell with vemurafenib 1.3; inactive.
Silencing of CDK16 (GeneID 5127) resulted in: cell gain with vemurafenib 0.46; lactate per cell with vemurafenib 1.84; inactive.
With knock-down of B4GALNT4 (GeneID 338707), the record shows cell gain with vemurafenib 0.99; lactate per cell with vemurafenib 1.05; inactive.
Depletion of ZNF677 (GeneID 342926) came out at: cell gain with vemurafenib 0.8; lactate per cell with vemurafenib 0.46; active.
Silencing of HYAL1 (GeneID 3373) resulted in: cell gain with vemurafenib 0.54; lactate per cell with vemurafenib 0.98; inactive.
Silencing of CCDC110 (GeneID 256309) resulted in: cell gain with vemurafenib 0.45; lactate per cell with vemurafenib 1.6; inactive.
CCDC172 (GeneID 374355) gave cell gain with vemurafenib 0.57; lactate per cell with vemurafenib 1.26; inactive.
Silencing of CCND1 (GeneID 595) gave: cell gain with vemurafenib 0.18; lactate per cell with vemurafenib 1.44; inactive.
For PSMB5 (GeneID 5693), the values are cell gain with vemurafenib 0.29; lactate per cell with vemurafenib 1.4; inactive.
CATSPERT (GeneID 151254) scored cell gain with vemurafenib 0.29; lactate per cell with vemurafenib 2.34; inactive.
Silencing of ADPRS (GeneID 54936) resulted in: cell gain with vemurafenib 0.5; lactate per cell with vemurafenib 1.12; inactive.
GSK3B (GeneID 2932) scored cell gain with vemurafenib 1.25; lactate per cell with vemurafenib 0.48; inactive.
SEPTIN12 (GeneID 124404) scored cell gain with vemurafenib 0.74; lactate per cell with vemurafenib 0.9; inactive.
For FBXO2 (GeneID 26232) the deposit lists cell gain with vemurafenib 0.22; lactate per cell with vemurafenib 1.59; inactive.
Silencing of ZFYVE27 (GeneID 118813) resulted in: cell gain with vemurafenib 0.61; lactate per cell with vemurafenib 0.8; inactive.
Silencing of TMEM223 (GeneID 79064) gave: cell gain with vemurafenib 0.95; lactate per cell with vemurafenib 1.34; inactive.
Depletion of TTC3 (GeneID 7267) gave: cell gain with vemurafenib 0.67; lactate per cell with vemurafenib 1.17; inactive.
For ACSF2 (GeneID 80221), the entry reads cell gain with vemurafenib 0.29; lactate per cell with vemurafenib 1.71; inactive.
LRRC75B (GeneID 388886) scored cell gain with vemurafenib 0.77; lactate per cell with vemurafenib 1.12; inactive.
CCDC28B (GeneID 79140) gave cell gain with vemurafenib 0.63; lactate per cell with vemurafenib 1.02; inactive.
PPP2R5B (GeneID 5526) scored cell gain with vemurafenib 0.67; lactate per cell with vemurafenib 0.86; inactive.
SHANK2 (GeneID 22941) scored cell gain with vemurafenib 0.09; lactate per cell with vemurafenib 0.92; inactive.
SUPT7L (GeneID 9913) gave cell gain with vemurafenib 0.99; lactate per cell with vemurafenib 0.7; inactive.
With knock-down of CORO1B (GeneID 57175), the screen gave cell gain with vemurafenib 0.32; lactate per cell with vemurafenib 0.41; inactive.
Against DGKG (GeneID 1608) the deposit lists cell gain with vemurafenib 0.75; lactate per cell with vemurafenib 0.92; inactive.
NFE2 (GeneID 4778) showed cell gain with vemurafenib 0.74; lactate per cell with vemurafenib 1.09; inactive.
For IL22RA1 (GeneID 58985), the values are cell gain with vemurafenib 0.06; lactate per cell with vemurafenib 0.77; inactive.
After knock-down of DTD2 (GeneID 112487), the record shows cell gain with vemurafenib 0.64; lactate per cell with vemurafenib 0.79; inactive.
With knock-down of CCDC47 (GeneID 57003) the results were cell gain with vemurafenib 0.28; lactate per cell with vemurafenib 0.88; inactive.
